Data: the supplement of paper PMC12889115
Some of the results follow. Values are raw readings; no control value is given beside them.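 First-pass screen: polymyxin B was added at a level that permeabilizes the Salmonella outer membrane while sparing the inner membrane. DMSO wells, with and without polymyxin B, defined maximum growth. Because plates differed from one another, each plate's data were ranked separately and the compounds with the lowest OD600 were carried forward as hits.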

Tested on: Salmonella enterica serovar Typhimurium SL1344
Test: bacterial growth OD600 after 18 h with compound and polymyxin B; higher = more bacterial growth (less inhibition)
Conditions: 50 µM, Mueller-Hinton broth

Compound | bacterial growth OD600 (polymyxin B 0.75 µg/mL) | bacterial growth OD600 (polymyxin B 1 µg/mL)
CC(=O)c1ccc(F)c(-c2cc(C)cc3c2OC(CNC(=O)C2CCC2)C3)c1 (stereo unspecified) | 0.7 | 
CCC1CN(C(=O)CCC(=O)c2ccc(F)cc2)Cc2ccc(Cl)cc2O1 (stereo unspecified) | 0.876 | 
O=C(CCc1ccco1)N1CCc2onc(-c3ccccc3F)c2C1 | 0.741 | 
COc1ccc(OC)c(C(=O)N2CCCC(N3CCN(c4ccc(F)cc4)CC3)C2)c1 (stereo unspecified) |  | 0.928
COC(=O)C1CCN(C(=O)c2cc(COc3ccc(F)c(F)c3)on2)CC1 | 0.77 | 
Cc1cc(-c2ccnc(-n3ncc(C(=O)N(C)CC(O)c4ccccc4)c3C3CC3)n2)c(C)s1 (stereo unspecified) | 0.668 | 
Cc1ccccc1CCC1CCCN(C(=O)CN2CCOC2=O)C1 (stereo unspecified) |  | 1.03
Cc1cnc(C)c(-c2ccc3c(c2)CC(CNC(=O)Cc2cccs2)O3)n1 (stereo unspecified) | 0.889 | 
CC(C)c1ccc(NC2CCCN(C(=O)C3(C)CC3)C2)cc1 (stereo unspecified) |  | 0.907
Cc1ccc(N2CCC(N3CC[C@@H](N4CCN(C)CC4)[C@H](O)C3)CC2)cc1Cl | 0.801 | 
Cc1ncc2c(c1CNC(=O)/C=C/c1cccs1)CCN(C(=O)C(=O)c1ccccc1)C2 | 0.657 | 
Cc1cccc(CCNCc2c(C(=O)N3C[C@@H](C)O[C@@H](C)C3)nc3sccn23)n1 |  | 0.868
c1ccc(OCc2noc(-c3ccc(NCC4CCCOC4)nc3)n2)cc1 (stereo unspecified) |  | 0.735
COc1ccccc1CCN1CCCC(CN(C)C(=O)Cc2cccc(C)c2)C1 (stereo unspecified) |  | 0.697
COC(=O)c1ccc(CNCCC2CCC(=O)N2Cc2ccc(C)cc2)cc1 (stereo unspecified) | 0.785 | 
COc1ccc(CCN(C)C(=O)c2cnn(-c3ncc4c(n3)-c3ccccc3CCC4)c2C)cc1OC | 0.132 | 
Cc1ccc2c(CC(=O)N3CCc4c(cnc(C)c4CNC(=O)c4ccsc4)C3)cc(=O)oc2c1 | 0.813 | 
O=C(CCC(F)(F)F)N1CCc2onc(-c3cccc4ccccc34)c2C1 | 0.001 | 
COc1ccc(OCc2cc(C(=O)N(C)C)n[nH]2)c(Cl)c1 |  | 0.892
Cc1ccccc1CNC(=O)c1coc(CN2CCN(Cc3ccccc3)CC2)n1 |  | 1.02
C=CCN(CC=C)Cc1c(C(=O)N2CCN(C3CCCCC3)CC2)nc2ccccn12 |  | 0.871

Given tab-delimited: entries from further up
Compound	bacterial growth OD600 (polymyxin B 0.75 µg/mL)	bacterial growth OD600 (polymyxin B 1 µg/mL)
Cc1ccc2c(CC(=O)N3CCc4c(cnc(C)c4CNC(=O)c4ccsc4)C3)cc(=O)oc2c1	0.813	
O=C(CCC(F)(F)F)N1CCc2onc(-c3cccc4ccccc34)c2C1	0.001	
